Laboratory results published in US20050267128A1, “Compounds, compositions and methods of modulating the mitochondrial apoptosis-induced channel (MAC)” (priority 2004, published 2005).
Some of these results come from one statement about several compounds together.

Protein sequences, listed by entry. Tags and fused reporters are not part of them.
UniProt Q07812, whole entry: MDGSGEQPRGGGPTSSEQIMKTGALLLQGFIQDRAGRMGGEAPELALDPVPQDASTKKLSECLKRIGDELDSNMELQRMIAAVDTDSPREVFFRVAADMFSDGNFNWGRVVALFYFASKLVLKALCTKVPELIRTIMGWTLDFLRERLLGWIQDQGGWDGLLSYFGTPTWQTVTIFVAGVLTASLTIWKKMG

What was measured:
[1] = biological target: recombinant Bax plus t-Bid or BH3 peptide (Homo sapiens, UniProt Q07812); details: induced by recombinant Bax plus t-Bid or BH3 peptide; cited from earlier work
[2] = tested on: mitochondrial apoptosis-induced channel (MAC); test: Patch clamp of MAC in proteoliposomes containing mitochondrial outer membranes of apoptotic FL5.12 cells; format: biochemical, mouse; details: MAC conductance 1.5-5 nS before drug

SMILES	concentration that prevents release of cytochrome c [1] [µM]	conductance of MAC in presence of the agent [2]
CCCCOc1cc(C(=O)NCCN(CC)CC)c2ccccc2n1 [dibucaine]	100 to 200	below 1.3 nS
CN1CCN(CCCN2c3ccccc3Sc3ccc(C(F)(F)F)cc32)CC1 [trifluoperazine]	–	below 1.3 nS
